Measurements: PMC12113857

How the values were obtained:
[1] = molecular target: MprA, phosphorylated with acetylphosphate (Corynebacterium glutamicum ATCC 13032) (UniProt H7C6D1); experiment: EMSA; conditions: acetylphosphate, Buffer P: 50 mM Tris-HCl pH 7.5, 50 mM KCl, 10 mM MgCl2, 0.5 mM EDTA, 10% glycerol, 30 min at 20 C, DNA 25-107 nM, protein 0-64-fold molar excess, 6% native PAGE, recombinant protein, protein details: C-terminal His6
[2] = tested on: T1, MprA, unphosphorylated (Corynebacterium glutamicum ATCC 13032); experiment: EMSA; conditions: no acetylphosphate; Buffer P: 50 mM Tris-HCl pH 7.5, 50 mM KCl, 10 mM MgCl2, 0.5 mM EDTA, 10% glycerol; 30 min at 20 C; DNA 25-107 nM, protein 0-64-fold molar excess; 6% native PAGE; recombinant protein; residues 1-232; protein details: C-terminal His6; probe letters rebuilt from the primers and the genome
T1 sequence (looked up): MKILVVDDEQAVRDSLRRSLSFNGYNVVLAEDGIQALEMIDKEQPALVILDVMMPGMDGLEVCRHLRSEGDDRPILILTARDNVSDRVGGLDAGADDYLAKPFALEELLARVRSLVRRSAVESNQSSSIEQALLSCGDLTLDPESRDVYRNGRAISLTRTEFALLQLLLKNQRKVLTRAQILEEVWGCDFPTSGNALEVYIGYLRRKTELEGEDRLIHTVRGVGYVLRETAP

[3] = probe letters rebuilt from the primers and the genome

Sequence: TGTTGCGACTCACCTCTTTTGTGTCTTTCGAGAGATTCTTTTAATGCTTGCGATGTGGACTTTGCTGGTGCTGGCCTGTGCACTGGATCGTCCTGGCCGTGATATTTCACTTCAAAAACTCTGGTGCAATCCGCACACAACCACGCGAATTCTGTTTGCTCATCGGGGAAAAGAACTTCTCCCGCGCAGTATGGGCAGTACAGAGGGTGGTTGCGGTTGGGATTGGGTTTCCTCCGAAGACTCACACCAAATCTTCCTCAGCGGCCCGCTGGACCCAATCGCGGAAGTGCTCGTCCTCGTGGCGCTGTTCCTTGAAGTGGGTAACAACGC (double strand) [cysD promoter]
- binding result [1, 3]: no binding
- binding result [2]: no binding

Sequence: AATATTCTAAGAAACAGTTCAAGTTTTGCT (double strand) [cg0793 -43 to -14 (label 6)]
- binding result ([1]; shift at 4-fold molar excess): binds

Sequence: ATCGTGGTCTGATGCAGCACCTGGTGAGGTGGCTGAGCCGGTGATTGAAAAGATTGCACAAGGTTTACGTGAGCGCGGAATCACCGTGGAACAAGGACGATTCGGCGCAATGATGAAGGTCACATCGGTTAACGAAGGCCCCTTCACCGTTTTGGTCGAGTGCTAGCCAGTCAATCCTAAGAGCTTGAAACGCCCCAATGTGGGGGTGTTAAGAACTCCATAAAAGCGCTTGGGAACTTTTTGTGGAAGCAGTCCGTTGAACCTCTTGAACCGCGAATTTAGGAGGCCAGTT (double strand) [sigB promoter]
- binding result [1, 3]: binds

Sequence: GGAGACAGACCTTAGCAACTAATCTGTTAAACCCCTGGCAACACAACGATGTATGTTAAGAAATTTCTTCTACAACCTTTTTTATAGCTCTGGTTGGAGGAAAGCTTCCTCGAAATTCTTGAGCGCAAATTTGGTTTTCCCGGCGCGGATTTTGCGCTGACGGTCGGTCAAAGAAGGGTCCTCGAGGTTGAAAAATCCCGTGTCGAAACGGTTGGCGCCCCGAGGATAGGTCTGCTTGCGGAGCCCTTCGACCAGTGTGGTGCAGTAGTCCATGATTCTGTCGAATTCTGCTGGGTCGTT (double strand) [bla promoter]
- binding result [1, 3]: binds

Sequence: CGGTTTTTTCCGAGTCTCGCTGATGCGGCGTCGTTGCTGCACGATGTTCTCCCTGATGATATTGGTGCGGCTGAGACTATATGAAACAACTGAGAAGCCTAGTGCACTTCTGGGGATAATGGTACCTATGTGACTAAAGTTTCGTAGGGTGTGTCGCAAGTTGTTAAGAGCCTGTGAGAACGACAAAGGTATCTGGGTGTGGATATGCCCTGCTAACTGGAGAAACTTGGCCCGATCGGGTGTCTGAAATTTCGGCAACGCCGAATGTAAGTTAGTGTCGAATGCATGACGGAATCGAAA (double strand) [csp promoter]
- binding result [1, 3]: binds

Sequence: CTTACATTTTCCCTGCCACCCCTACGGGGGCTTTCATTTGACCAGCACCGATGGTGATTTTATGGTGTAGGACACCATCCGTTCTTTTTCAGGGGAATTTCGGTGAGAACCCGAAGCTGACCCGCAACCGTATTATGCAATCGCTTTCACCAGGTATTGCATTAAGCCGGATCACCTGAATAAGAAATGAGTGGCTCCAAACCGTCGAGGATTACGGTTCTGAAGCCCGTATTGAAGCGCAGTAATGTGTGCCTTAAAGCGGGGTCAGAACATTTCTCCAATTCATTTTAAGGACATGTTTTC (double strand) [cg0625 promoter]
- binding result [1, 3]: binds

Sequence: TAATCGCGATGGCACCAGTGGAGCCGTTGCCATTGGTGGTGGCAGCCAAAGTGGTTAGCAGCTGGCCAGTCATTTCATCCGGGGCGGGGAGACCGAACTCGGCGGCGTCTTCACGAGCGCGCGCTACAGCAGCGTCGGTTTCAGTAGTGGACTCGACATAAGTGCGAAGATACTCGAAGGCGTTACTCACGCGTTATAGTCTAGAGCGAGCAGGCGAGATGTGAAGTACCTACACGCATTAAGTGCAAATGAATTCACAATTGCCAGAAGATGCACAGGATGTAATCTAGATTTCCCAAGTTCAGTGGGGCAAA (double strand) [sigE promoter]
- binding result [1, 3]: binds

Sequence: ACCAGTCCACGTCGTTTACACAGGTTAACCACGGTGTCGATGATCGATTGCTGAGCCACGTCGGATGCTCTCCTCCACGTCGAATGAAAAAATAACCGTCCCTTTTAGGACATACCCAACCAATCCTAGCCCAACTAACGATGTTGCTTCCGCTGACCCCGTCATTTTGCGGTCTTCGCGATGTAAACTAGTTCTAATAACTATTTTTTCATTTCCCTCATAAAAGGTTTATATAGAAGGTAAAATAGCAAGCGTGCTAGATCCATTCCAGACCTAGCCTAAGGACGGAAGGACTTCCCC (double strand) [znr promoter]
- binding result [1, 3]: binds

Sequence: ATGAGCTAAGAAAACACTTTAAATATTCTA (double strand) [cg0793 -64 to -35 (label 5)]
- binding result ([1]; shift at 4-fold molar excess): binds

Sequence: AGAGGATCCGATCGAGAAGTCGCGCCGGGATCCAGACGATGTGAACAAGGCGCTGGCGGCGGCGGATATGTATGTGTTGATGAATCAGCCGGACACAGCGCTCGCGCACCTTGCAGCACTATTGCCAAAACCGGAGGCTGCCCGGCGGATCGTGGAGTTGCTGAACTTGTTTGATCCGCTGGACCTGGTCGCATTGGAAATCAGGGCGCAGGTGGGGAATGCAATGAGCTAAGAAAACACTTTAAATATTCTAAGAAACAGTTCAAGTTTTGCTGTAGTTTAGATATGACAAGGCAATGACACAAGGAGACAA (double strand) [cg0793 promoter]
- binding result [1, 3]: binds
- binding result [2]: binds more weakly

Sequence: GATTTGATTATGAACCCTGTGGCTGGGGCGTCACTCTAAGTAGTCTGAACACTTCCTGTGAGCTCTTTAGTGGTTTAATCATCGACATTTTCGAACCCGCTGCGAATGGGTTCCCCTGGCAAATCAATAGTGATTCTCGTTCCGCCATCATCTGATTCACCCACAACGAGTTGGCCACCATGCCGATTCACAACCTGATTCACGATGGCAAGACCTAATCCCGATCCCGGCATGGAACGGGAGCTGACGGCGCGATAGAACCGTTCCAAAACTAATCCTCGTTCTTTTTCAGCAATTCCAGGCCCT (double strand) [htrA promoter]
- binding result [1, 3]: binds

Negatives hold for the conditions tested. For some of these results: Where a protein sequence is shown, tags need not be part of it. Construct, isoform or probe ends are uncertain for at least one entry. For some of these results: Weaker means in comparison with the reference protein, sequence or condition of that experiment.
